# Screening data

By UniProt entry, the sequences of proteins in these tests, tags left out.
UniProt P51449, whole entry, target on record: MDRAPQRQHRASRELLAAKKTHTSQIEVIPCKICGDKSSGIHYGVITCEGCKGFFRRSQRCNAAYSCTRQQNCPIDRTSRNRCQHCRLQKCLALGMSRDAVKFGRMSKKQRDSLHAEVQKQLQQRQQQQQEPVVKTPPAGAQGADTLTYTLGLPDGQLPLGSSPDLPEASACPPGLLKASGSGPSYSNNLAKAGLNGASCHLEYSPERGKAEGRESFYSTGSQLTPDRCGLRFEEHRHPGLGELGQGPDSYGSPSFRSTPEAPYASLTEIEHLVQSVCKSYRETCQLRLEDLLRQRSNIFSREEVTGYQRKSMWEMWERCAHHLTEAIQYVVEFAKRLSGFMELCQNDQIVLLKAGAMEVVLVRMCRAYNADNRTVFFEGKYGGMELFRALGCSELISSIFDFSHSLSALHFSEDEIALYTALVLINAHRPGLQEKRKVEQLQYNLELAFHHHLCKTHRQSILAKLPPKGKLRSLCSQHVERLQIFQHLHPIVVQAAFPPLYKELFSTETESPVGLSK

Source: PubChem BioAssay AID651802 (NCATS, 2012).

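A cellular reporter test looks for lowered ROR-gamma-driven luciferase light in inducible CHO cells, measured 16 hours after dosing.
Each compound was run as a concentration series from about 0.00059 to 92 µM.
The number is the fitted half-maximal concentration for loss of reporter light; a lower value means a more potent inhibitor.
Calls come from curve class plus fitted potency: inactive compounds score zero, actives score 40 to 100, and inconclusive ones receive a positive score starting at 1.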

Values are in µM.
Every entry below has the call inconclusive.
Only part of the assay is shown, chiefly results filed as inconclusive.
Potencies fitted to partial, single-point or poorly fitting curves are rough.
Activity scores are not listed here.

Compound	potency (µM)	curve
O=C1C=CC(=O)C=C1	26.6	inhibitor, full curve, poor fit
[N-]=[N+]=[N-]	0.0531	inhibitor, full curve, poor fit
O=C(O)CNC(=O)c1ccc([N+](=O)[O-])cc1	2.371	inhibitor, full curve, poor fit
ClC(Cl)Cl	74.98	inhibitor, single point
CCCCCCCCCCCCCl	0.8413	inhibitor, full curve, poor fit
Nc1ccc(O)cc1	42.16	inhibitor, partial curve, poor fit
Oc1cccc(O)c1	74.98	inhibitor, single point
Oc1c(Cl)ccc(Cl)c1Cl	29.85	inhibitor, partial curve, poor fit
Oc1c(Br)c(Br)c(Br)c(Br)c1Br	66.82	inhibitor, partial curve, poor fit
CN(C)c1ccc(N=Nc2ccccc2)cc1	26.6	inhibitor, partial curve, poor fit
CC(=O)Oc1ccccc1C(=O)Nc1ncc([N+](=O)[O-])s1	4.216	inhibitor, full curve, poor fit
BrCC(Br)(Br)Br	66.82	inhibitor, partial curve, poor fit
Nc1ccc(Cl)cc1[N+](=O)[O-]	84.13	inhibitor, single point
CC(C)(c1ccc(OCC2CO2)cc1)c1ccc(OCC2CO2)cc1 (stereo not given)	23.71	inhibitor, partial curve, poor fit
CCCCOC(=O)c1ccccc1C(=O)OCCCC	6.682	inhibitor, full curve, poor fit
Cc1ccc(OP(=O)(Oc2ccc(C)cc2)Oc2ccc(C)cc2)cc1	37.58	inhibitor, partial curve, poor fit
S=C1NCCN1	0.1496	inhibitor, full curve, poor fit
CCOC(=O)CC(SP(=O)(OC)OC)C(=O)OCC (stereo not given)	0.9439	inhibitor, full curve, poor fit
CC(COc1ccccc1)N(CCCl)Cc1ccccc1 (stereo not given)	42.16	inhibitor, partial curve, poor fit

The last 2 entries again:

{"compound": "CCOC(=O)CC(SP(=O)(OC)OC)C(=O)OCC", "stereo": "stereo not given", "potency (µM)": "0.9439", "curve": "inhibitor, full curve, poor fit"}
{"compound": "CC(COc1ccccc1)N(CCCl)Cc1ccccc1", "stereo": "stereo not given", "potency (µM)": "42.16", "curve": "inhibitor, partial curve, poor fit"}